Reference: PubChem BioAssay AID686943 (Drosophila RNAi Screening Center, 2013)
Screen: 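Fly genes whose loss alters ERK activation after insulin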 (primary screen). System: Drosophila S2R+ haemocyte-like cells expressing YFP-tagged ERK (Rolled). Reagent: long dsRNA against Drosophila genes. Challenge: insulin stimulation versus unstimulated cells; dose and duration not given. Measurement: 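Per-plate z-scores of phospho-ERK immunostaining normalised to YFP-tagged ERK, measured with and without insulin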. Reading the numbers: replicate 1, z-score of dpERK with insulin and replicate 2, z-score of dpERK with insulin: higher = more active ERK per ERK-YFP after insulin.
The screen tested about 23,000 reagents; below is a random part of those that have a named target and a result. 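Extra replicates exist only for a retested subset of genes; insulin dose and duration not given; both raised and lowered dpERK matter.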 The numbers tell different reagents against one gene apart. A plus sign joins genes that one reagent is predicted to hit. Further read-outs or replicates are left out here. Not stated in the record: the amount of reagent, the time to read-out.

{"Target gene":"Uch","reagent no.":1,"replicate 1, z-score of dpERK with insulin":-0.44,"replicate 2, z-score of dpERK with insulin":0.21}
{"Target gene":"Jon99Fii + Jon99Cii + Jon99Ciii + 1 more","reagent no.":1,"replicate 1, z-score of dpERK with insulin":1.02,"replicate 2, z-score of dpERK with insulin":-0.17}
{"Target gene":"Cdk5alpha","reagent no.":1,"replicate 1, z-score of dpERK with insulin":-1.74,"replicate 2, z-score of dpERK with insulin":-0.56}
{"Target gene":"Plc21C","reagent no.":1,"replicate 1, z-score of dpERK with insulin":-0.99,"replicate 2, z-score of dpERK with insulin":-0.17}
{"Target gene":"CG43373","reagent no.":1,"replicate 1, z-score of dpERK with insulin":-0.04,"replicate 2, z-score of dpERK with insulin":-0.66}
{"Target gene":"CG43373","reagent no.":2,"replicate 1, z-score of dpERK with insulin":1.23,"replicate 2, z-score of dpERK with insulin":1.23}
{"Target gene":"Gpat4","reagent no.":1,"replicate 1, z-score of dpERK with insulin":1.16,"replicate 2, z-score of dpERK with insulin":0.5}
{"Target gene":"tok","reagent no.":1,"replicate 1, z-score of dpERK with insulin":-0.02,"replicate 2, z-score of dpERK with insulin":0.06}
{"Target gene":"CG12093","reagent no.":1,"replicate 1, z-score of dpERK with insulin":0.07,"replicate 2, z-score of dpERK with insulin":-0.41}
{"Target gene":"neb","reagent no.":1,"replicate 1, z-score of dpERK with insulin":-1.94,"replicate 2, z-score of dpERK with insulin":-0.38}
{"Target gene":"Zmynd10","reagent no.":1,"replicate 1, z-score of dpERK with insulin":-0.27,"replicate 2, z-score of dpERK with insulin":0}
{"Target gene":"Liprin-gamma","reagent no.":1,"replicate 1, z-score of dpERK with insulin":-0.68,"replicate 2, z-score of dpERK with insulin":-0.66}
{"Target gene":"Agpat2","reagent no.":1,"replicate 1, z-score of dpERK with insulin":0.1,"replicate 2, z-score of dpERK with insulin":0.99}
{"Target gene":"CG13380 + CG4174","reagent no.":1,"replicate 1, z-score of dpERK with insulin":0.19,"replicate 2, z-score of dpERK with insulin":0.09}
{"Target gene":"CG13380 + CG4174","reagent no.":2,"replicate 1, z-score of dpERK with insulin":-0.16,"replicate 2, z-score of dpERK with insulin":-0.08}
{"Target gene":"Ogdh","reagent no.":1,"replicate 1, z-score of dpERK with insulin":-0.17,"replicate 2, z-score of dpERK with insulin":0.24}
{"Target gene":"Ogdh","reagent no.":2,"replicate 1, z-score of dpERK with insulin":0.18,"replicate 2, z-score of dpERK with insulin":0.6}
{"Target gene":"CG7914","reagent no.":1,"replicate 1, z-score of dpERK with insulin":-0.08,"replicate 2, z-score of dpERK with insulin":0.01}
{"Target gene":"CG43052","reagent no.":1,"replicate 1, z-score of dpERK with insulin":0.07,"replicate 2, z-score of dpERK with insulin":0.64}
{"Target gene":"Cdk2","reagent no.":1,"replicate 1, z-score of dpERK with insulin":-0.71,"replicate 2, z-score of dpERK with insulin":-2.8}
{"Target gene":"CG17195","reagent no.":1,"replicate 1, z-score of dpERK with insulin":-0.86,"replicate 2, z-score of dpERK with insulin":-0.35}
{"Target gene":"mIF2","reagent no.":1,"replicate 1, z-score of dpERK with insulin":-0.9,"replicate 2, z-score of dpERK with insulin":-0.1}

Part of the list above in another layout.
| Target gene | reagent no. | replicate 1, z-score of dpERK with insulin | replicate 2, z-score of dpERK with insulin |
| --- | --- | --- | --- |
| neb | 1 | -1.94 | -0.38 |
| Zmynd10 | 1 | -0.27 | 0 |

The list goes on:
{"Target gene":"CG17264","reagent no.":1,"replicate 1, z-score of dpERK with insulin":0.25,"replicate 2, z-score of dpERK with insulin":-0.67}
{"Target gene":"RpL21","reagent no.":1,"replicate 1, z-score of dpERK with insulin":-0.06,"replicate 2, z-score of dpERK with insulin":-1.71}
{"Target gene":"kermit","reagent no.":1,"replicate 1, z-score of dpERK with insulin":0.78,"replicate 2, z-score of dpERK with insulin":-0.15}
{"Target gene":"Amph","reagent no.":1,"replicate 1, z-score of dpERK with insulin":-0.59,"replicate 2, z-score of dpERK with insulin":0.1}
{"Target gene":"Gr93c","reagent no.":1,"replicate 1, z-score of dpERK with insulin":0.49,"replicate 2, z-score of dpERK with insulin":0.34}
{"Target gene":"wwk","reagent no.":1,"replicate 1, z-score of dpERK with insulin":0.2,"replicate 2, z-score of dpERK with insulin":0.26}
{"Target gene":"CG9518","reagent no.":1,"replicate 1, z-score of dpERK with insulin":0,"replicate 2, z-score of dpERK with insulin":0.75}
{"Target gene":"rdgA","reagent no.":1,"replicate 1, z-score of dpERK with insulin":0.44,"replicate 2, z-score of dpERK with insulin":0.26}
{"Target gene":"rdgA","reagent no.":2,"replicate 1, z-score of dpERK with insulin":0.21,"replicate 2, z-score of dpERK with insulin":0}
{"Target gene":"rdgA","reagent no.":3,"replicate 1, z-score of dpERK with insulin":0.47,"replicate 2, z-score of dpERK with insulin":0.27}
{"Target gene":"CG15141","reagent no.":1,"replicate 1, z-score of dpERK with insulin":0.29,"replicate 2, z-score of dpERK with insulin":0.31}
{"Target gene":"CG15141","reagent no.":2,"replicate 1, z-score of dpERK with insulin":0.68,"replicate 2, z-score of dpERK with insulin":0.53}
{"Target gene":"Sil1","reagent no.":1,"replicate 1, z-score of dpERK with insulin":0.65,"replicate 2, z-score of dpERK with insulin":-0.13}
{"Target gene":"c11.1","reagent no.":1,"replicate 1, z-score of dpERK with insulin":-0.63,"replicate 2, z-score of dpERK with insulin":0.23}
{"Target gene":"CG31326","reagent no.":1,"replicate 1, z-score of dpERK with insulin":0.27,"replicate 2, z-score of dpERK with insulin":-1.66}
{"Target gene":"Mtch","reagent no.":1,"replicate 1, z-score of dpERK with insulin":0.03,"replicate 2, z-score of dpERK with insulin":-0.06}
{"Target gene":"noi","reagent no.":1,"replicate 1, z-score of dpERK with insulin":3.61,"replicate 2, z-score of dpERK with insulin":-1.53}
{"Target gene":"MFS9","reagent no.":1,"replicate 1, z-score of dpERK with insulin":-0.09,"replicate 2, z-score of dpERK with insulin":0.24}
